Some of the results follow.

Amino acid sequences for entries named in this document (tags omitted). A change or cut given only in a name is not applied to a line headed by its entry.
UniProt Q12772: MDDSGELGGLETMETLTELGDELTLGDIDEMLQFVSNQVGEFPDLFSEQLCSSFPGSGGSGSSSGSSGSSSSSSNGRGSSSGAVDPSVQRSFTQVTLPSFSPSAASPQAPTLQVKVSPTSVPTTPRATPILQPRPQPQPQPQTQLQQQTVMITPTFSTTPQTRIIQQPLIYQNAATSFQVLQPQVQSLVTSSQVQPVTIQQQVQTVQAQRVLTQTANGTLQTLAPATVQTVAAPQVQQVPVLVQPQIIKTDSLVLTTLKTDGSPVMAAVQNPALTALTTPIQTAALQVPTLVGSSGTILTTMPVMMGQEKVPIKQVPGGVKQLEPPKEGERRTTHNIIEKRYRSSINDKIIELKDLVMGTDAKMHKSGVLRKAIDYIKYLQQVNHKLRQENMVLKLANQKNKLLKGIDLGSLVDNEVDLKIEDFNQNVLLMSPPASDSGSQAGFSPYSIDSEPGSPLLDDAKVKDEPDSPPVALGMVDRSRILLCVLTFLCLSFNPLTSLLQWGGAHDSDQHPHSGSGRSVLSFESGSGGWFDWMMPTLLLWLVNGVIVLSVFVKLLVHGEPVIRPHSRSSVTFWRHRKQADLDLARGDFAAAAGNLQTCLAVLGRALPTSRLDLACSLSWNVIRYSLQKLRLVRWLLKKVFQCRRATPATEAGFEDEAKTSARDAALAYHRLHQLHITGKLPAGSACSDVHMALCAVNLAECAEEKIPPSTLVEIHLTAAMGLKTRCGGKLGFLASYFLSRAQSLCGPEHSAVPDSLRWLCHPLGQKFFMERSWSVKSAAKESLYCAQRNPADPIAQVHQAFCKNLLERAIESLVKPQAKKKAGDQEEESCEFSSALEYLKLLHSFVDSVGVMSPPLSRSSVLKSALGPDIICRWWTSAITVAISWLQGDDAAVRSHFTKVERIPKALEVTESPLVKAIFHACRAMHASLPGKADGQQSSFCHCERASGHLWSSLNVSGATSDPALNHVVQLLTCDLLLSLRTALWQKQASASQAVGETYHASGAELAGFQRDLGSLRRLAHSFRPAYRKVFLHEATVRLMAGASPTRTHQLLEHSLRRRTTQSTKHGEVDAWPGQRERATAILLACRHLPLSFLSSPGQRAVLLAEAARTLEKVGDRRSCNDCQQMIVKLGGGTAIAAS
UniProt Q9NP77: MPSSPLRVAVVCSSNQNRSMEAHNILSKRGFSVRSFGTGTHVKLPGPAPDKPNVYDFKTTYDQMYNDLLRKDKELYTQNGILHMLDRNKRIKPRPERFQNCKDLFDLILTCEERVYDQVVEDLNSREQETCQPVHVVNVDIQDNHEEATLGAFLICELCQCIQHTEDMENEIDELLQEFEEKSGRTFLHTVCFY
UniProt Q08170: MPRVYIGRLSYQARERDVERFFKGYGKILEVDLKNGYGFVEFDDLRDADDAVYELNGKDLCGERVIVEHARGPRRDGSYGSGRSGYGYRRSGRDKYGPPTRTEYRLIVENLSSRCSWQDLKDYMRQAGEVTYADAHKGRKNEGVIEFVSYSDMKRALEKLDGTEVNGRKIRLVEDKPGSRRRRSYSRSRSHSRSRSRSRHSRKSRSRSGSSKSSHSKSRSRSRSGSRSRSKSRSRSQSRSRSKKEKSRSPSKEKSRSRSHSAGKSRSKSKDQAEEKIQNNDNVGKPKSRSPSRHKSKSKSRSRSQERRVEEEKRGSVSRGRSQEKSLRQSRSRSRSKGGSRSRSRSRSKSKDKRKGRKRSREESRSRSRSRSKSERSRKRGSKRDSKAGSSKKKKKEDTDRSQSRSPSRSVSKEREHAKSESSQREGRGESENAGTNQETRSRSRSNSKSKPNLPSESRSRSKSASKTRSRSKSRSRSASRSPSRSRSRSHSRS
UniProt Q07955, whole entry, looked up: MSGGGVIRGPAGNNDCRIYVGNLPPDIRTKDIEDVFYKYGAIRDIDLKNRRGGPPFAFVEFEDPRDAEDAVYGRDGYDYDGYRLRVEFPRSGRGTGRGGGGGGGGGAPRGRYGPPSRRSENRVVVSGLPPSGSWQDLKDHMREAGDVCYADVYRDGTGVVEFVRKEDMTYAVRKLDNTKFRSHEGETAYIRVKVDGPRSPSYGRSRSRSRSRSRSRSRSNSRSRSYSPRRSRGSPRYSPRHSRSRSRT
UniProt Q13247: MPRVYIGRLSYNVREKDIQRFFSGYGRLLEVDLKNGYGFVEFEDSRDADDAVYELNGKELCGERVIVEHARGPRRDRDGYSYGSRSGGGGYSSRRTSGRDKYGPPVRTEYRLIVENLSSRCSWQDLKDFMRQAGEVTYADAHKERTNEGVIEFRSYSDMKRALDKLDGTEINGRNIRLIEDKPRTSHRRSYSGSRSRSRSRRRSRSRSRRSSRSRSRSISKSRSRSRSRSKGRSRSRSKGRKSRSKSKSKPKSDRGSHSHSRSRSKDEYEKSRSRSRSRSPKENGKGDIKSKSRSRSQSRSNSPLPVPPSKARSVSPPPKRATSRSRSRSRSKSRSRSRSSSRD
UniProt O15020, whole entry, looked up: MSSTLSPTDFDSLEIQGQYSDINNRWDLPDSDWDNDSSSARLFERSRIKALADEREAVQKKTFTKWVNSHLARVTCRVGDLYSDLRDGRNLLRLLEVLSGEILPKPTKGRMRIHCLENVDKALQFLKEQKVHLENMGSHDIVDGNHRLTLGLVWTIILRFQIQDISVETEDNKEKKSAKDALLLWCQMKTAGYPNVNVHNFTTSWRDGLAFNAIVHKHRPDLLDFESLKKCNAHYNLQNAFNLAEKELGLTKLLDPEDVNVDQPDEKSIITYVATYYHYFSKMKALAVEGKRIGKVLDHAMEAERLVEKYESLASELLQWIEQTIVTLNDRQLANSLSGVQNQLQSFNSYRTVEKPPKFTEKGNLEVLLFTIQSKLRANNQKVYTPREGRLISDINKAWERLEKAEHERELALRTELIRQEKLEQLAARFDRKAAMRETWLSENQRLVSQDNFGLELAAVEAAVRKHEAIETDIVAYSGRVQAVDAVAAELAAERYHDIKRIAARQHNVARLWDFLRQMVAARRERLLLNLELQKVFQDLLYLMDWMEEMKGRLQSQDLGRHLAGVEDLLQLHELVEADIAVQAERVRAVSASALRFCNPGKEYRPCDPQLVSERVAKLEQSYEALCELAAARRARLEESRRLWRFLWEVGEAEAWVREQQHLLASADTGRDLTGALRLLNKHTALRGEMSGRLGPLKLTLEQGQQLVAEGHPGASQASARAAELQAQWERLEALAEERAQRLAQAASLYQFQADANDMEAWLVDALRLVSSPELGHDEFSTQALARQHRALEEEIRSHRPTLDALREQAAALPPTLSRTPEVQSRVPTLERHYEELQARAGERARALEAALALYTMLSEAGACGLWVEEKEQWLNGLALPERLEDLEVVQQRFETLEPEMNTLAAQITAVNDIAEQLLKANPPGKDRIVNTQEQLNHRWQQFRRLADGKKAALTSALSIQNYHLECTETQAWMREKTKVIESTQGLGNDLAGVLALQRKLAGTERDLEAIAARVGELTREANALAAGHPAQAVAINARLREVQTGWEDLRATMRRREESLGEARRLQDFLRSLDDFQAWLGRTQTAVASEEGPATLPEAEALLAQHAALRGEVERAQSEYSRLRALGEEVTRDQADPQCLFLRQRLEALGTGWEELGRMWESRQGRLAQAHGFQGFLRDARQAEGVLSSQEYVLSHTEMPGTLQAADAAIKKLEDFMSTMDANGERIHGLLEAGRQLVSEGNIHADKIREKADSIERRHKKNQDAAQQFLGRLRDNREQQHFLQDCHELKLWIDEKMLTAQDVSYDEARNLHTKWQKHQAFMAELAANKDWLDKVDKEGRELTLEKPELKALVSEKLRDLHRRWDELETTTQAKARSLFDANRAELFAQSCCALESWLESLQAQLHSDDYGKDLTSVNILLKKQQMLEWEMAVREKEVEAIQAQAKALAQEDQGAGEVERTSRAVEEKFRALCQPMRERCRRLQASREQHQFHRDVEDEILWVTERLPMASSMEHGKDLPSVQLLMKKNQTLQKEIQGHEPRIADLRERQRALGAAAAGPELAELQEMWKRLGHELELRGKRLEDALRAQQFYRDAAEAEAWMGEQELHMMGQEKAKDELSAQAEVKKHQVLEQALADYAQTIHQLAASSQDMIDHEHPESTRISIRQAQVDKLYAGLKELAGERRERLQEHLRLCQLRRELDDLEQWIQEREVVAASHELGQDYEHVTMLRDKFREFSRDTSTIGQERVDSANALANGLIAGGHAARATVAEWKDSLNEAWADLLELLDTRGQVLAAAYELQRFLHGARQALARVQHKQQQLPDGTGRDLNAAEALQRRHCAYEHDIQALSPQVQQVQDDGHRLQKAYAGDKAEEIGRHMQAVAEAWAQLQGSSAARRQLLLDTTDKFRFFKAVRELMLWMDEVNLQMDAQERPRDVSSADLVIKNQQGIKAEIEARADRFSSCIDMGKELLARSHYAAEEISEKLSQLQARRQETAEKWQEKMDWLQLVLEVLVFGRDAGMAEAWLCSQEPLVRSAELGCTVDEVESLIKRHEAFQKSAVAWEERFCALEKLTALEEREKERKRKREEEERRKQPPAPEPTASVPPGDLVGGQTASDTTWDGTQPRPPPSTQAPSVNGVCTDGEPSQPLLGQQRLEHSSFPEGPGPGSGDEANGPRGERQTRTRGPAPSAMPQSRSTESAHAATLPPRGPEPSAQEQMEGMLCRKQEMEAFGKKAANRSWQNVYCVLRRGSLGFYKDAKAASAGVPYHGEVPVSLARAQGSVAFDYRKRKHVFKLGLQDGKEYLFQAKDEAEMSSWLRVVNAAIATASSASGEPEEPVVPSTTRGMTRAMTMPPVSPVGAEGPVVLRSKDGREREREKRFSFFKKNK
UniProt Q9BVQ7: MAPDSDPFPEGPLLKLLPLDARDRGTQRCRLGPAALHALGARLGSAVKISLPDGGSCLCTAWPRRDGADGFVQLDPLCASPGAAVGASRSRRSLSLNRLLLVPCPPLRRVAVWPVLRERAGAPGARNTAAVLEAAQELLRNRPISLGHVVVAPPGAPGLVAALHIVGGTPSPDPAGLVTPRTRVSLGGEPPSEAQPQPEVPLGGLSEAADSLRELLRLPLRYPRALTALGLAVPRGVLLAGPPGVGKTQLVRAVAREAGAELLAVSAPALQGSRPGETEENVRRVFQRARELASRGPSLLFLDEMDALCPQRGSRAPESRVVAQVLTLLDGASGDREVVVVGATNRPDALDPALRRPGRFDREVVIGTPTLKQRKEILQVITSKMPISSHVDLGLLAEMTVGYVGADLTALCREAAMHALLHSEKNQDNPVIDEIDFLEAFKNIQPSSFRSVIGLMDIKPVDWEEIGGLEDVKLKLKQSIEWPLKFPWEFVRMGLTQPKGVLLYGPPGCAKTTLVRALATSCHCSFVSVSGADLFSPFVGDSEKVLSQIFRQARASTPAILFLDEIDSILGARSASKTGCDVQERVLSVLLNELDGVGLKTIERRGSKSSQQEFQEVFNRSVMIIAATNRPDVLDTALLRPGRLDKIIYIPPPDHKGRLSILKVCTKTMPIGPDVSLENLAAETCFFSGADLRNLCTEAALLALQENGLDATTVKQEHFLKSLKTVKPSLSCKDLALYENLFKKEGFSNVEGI
UniProt Q8N5C6: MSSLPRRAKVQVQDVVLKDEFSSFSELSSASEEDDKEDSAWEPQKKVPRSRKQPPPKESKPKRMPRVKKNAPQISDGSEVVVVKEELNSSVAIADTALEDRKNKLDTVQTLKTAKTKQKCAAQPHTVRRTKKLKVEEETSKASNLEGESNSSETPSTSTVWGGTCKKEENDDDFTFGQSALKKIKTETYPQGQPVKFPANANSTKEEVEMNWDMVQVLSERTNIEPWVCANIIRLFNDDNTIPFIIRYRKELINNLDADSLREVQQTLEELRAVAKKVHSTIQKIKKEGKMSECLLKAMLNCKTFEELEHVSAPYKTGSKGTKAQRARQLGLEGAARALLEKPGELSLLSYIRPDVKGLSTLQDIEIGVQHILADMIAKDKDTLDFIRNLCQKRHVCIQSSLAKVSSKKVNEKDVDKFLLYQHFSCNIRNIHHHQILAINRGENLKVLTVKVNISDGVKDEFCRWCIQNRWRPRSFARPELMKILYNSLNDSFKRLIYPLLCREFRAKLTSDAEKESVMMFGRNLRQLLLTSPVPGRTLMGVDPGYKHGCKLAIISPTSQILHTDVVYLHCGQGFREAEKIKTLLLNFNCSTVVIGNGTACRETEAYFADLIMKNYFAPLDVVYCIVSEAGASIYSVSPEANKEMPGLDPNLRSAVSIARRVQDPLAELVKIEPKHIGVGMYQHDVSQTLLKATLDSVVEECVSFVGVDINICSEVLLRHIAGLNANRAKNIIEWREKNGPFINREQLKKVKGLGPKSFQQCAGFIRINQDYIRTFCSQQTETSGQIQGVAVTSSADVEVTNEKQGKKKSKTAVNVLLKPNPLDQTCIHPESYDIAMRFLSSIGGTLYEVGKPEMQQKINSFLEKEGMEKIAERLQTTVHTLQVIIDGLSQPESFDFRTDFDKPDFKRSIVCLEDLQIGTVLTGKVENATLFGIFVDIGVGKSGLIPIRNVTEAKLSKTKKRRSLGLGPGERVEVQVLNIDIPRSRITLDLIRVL

Compound in the test: C[C@H](C1=CC=C(C=C1)C(=O)NC2=C3C=CNC3=NC=C2)N
Briefly: log2 fold change, soluble protein after heating vs DMSO (PISA); higher = thermal stabilisation; K562 lysate, 10 uM; active = over 0.2 and 3.5 SD of the protein, either way, in both replicates (recomputed). Put shortly: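 Following dounce homogenisation of K562 pellets in PBS pH 7.4 with 1 mM MgCl2, crude extract at 1 mg/mL protein was incubated for 30 min with 10 μM compound. Aliquots were then heated for 3 min over 48°C-58°C and pooled, NP-40 was added to 0.5% at 4°C, and soluble protein was recovered as the supernatant at 21,000xg for 90 min. Channel-sum-equalised TMTpro 16plex LC-MS/MS quantified this protein. Each value, from duplicates, is a log-two fold change in thermal stability relative to solvent controls.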
For the target SREBF2 (UniProt Q12772), the log2 fold change was inactive: -0.121.
As for SPDL1 (UniProt Q96EA4), the figure is inactive: -0.08; as for SSU72 (UniProt Q9NP77), active: -0.288; as for SRPK1 (UniProt Q96SB4), inactive: 0.1.
On to STAMBP (UniProt O95630), for which the log2 fold change was inactive: -0.035.
For SPTLC2 (UniProt O15270), the log2 fold change was inactive: -0.04.
As for SRSF4 (UniProt Q08170), the figure is inactive: 0.023; as for SRSF1 (UniProt Q07955), inactive: 0.081; as for SRSF6 (UniProt Q13247), inactive: 0.149.
As for SPTBN2 (UniProt O15020), the figure is inactive: -0.055.
As for SPATA5L1 (UniProt Q9BVQ7), the figure is inactive: 0.016; as for STAU1 (UniProt O95793), active: 0.27; as for SPIRE1 (UniProt Q08AE8), active: -0.281.
For the target SPR (UniProt P35270), the log2 fold change is inactive: -0.029.
Next, SPATS2 (UniProt Q86XZ4): inactive: -0.016.
As for SPATA5 (UniProt Q8NB90), the figure is inactive: -0.027; as for SRP68 (UniProt Q9UHB9), inactive: 0.19; as for SPCS3 (UniProt P61009), inactive: 0.009.
As for SPRYD4 (UniProt Q8WW59), the figure is inactive: -0.081; as for SSBP1 (UniProt Q04837), inactive: -0.049.
With SRBD1 (UniProt Q8N5C6), the log2 fold change is inactive: -0.252.
As for ST3GAL2 (UniProt Q16842), the figure is inactive: -0.076; as for SRCAP (UniProt Q6ZRS2), inactive: 0.004; as for SSNA1 (UniProt O43805), inactive: 0.003.

These data come from the supplement of paper PMC10849652.
